Experimental data published in patent US6051559.
The exact form of at least one protein or probe is not confirmed. For some of these results: The comparison behind a weaker result is the experiment's own reference, which may not be listed here.

How the values were obtained:
[1] = system: dCREB2-b isoform lacking alternatively spliced exons 2, 4 and 6 relative to dCREB2-a (Drosophila melanogaster); assay: EMSA; conditions: purified recombinant protein, label: 32P
[2] = system: dCREB2-b isoform lacking alternatively spliced exons 2, 4 and 6 relative to dCREB2-a (Drosophila melanogaster); assay: binding assay; conditions: DNA-binding expression screen of Drosophila head cDNA library on filters; purified recombinant protein; label: 32P
[3] = system: dCREB2-b isoform lacking alternatively spliced exons 2, 4 and 6 relative to dCREB2-a (Drosophila melanogaster); assay: competition with a labelled probe; conditions: unlabeled nonspecific competitor; higher affinity for CRE than nonspecific DNA; purified recombinant protein

Row | Sequence | binding result [3] | further results
1 | AAATGAATTAACGGAAATGAATTAACGGAAATGAATTAACGG (double strand) [3xmCRE mutant] |  | binding result ([1]; lower but detectable affinity, variant of 3xCRE wild-type): binds more weakly
2 | AAATGACGTAACGGAAATGACGTAACGGAAATGACGTAACG (double strand) [3xCRE wild-type] |  | binding result ([1]; 4% gel, Tris-glycine, 3 mM MgCl2): binds
3 | CGTCTAGATCTATGACTGAATATGACGTAATATGACGTAATGGTACCAGATCTGGCC (double strand) [3xCRE screening probe] |  | binding result [2]: binds
4 | CTAGAGCTTGCAAGCATGCTTGCAAGCAAGCATGCTTGCAAGCATGCTTGCAAGC (double strand) [Nonspecific competitor #3] | binds more weakly | 
5 | CTCTAGAGCGTACGCAAGCGTACGCAAGCGTACG (double strand) [Nonspecific competitor #4] | binds more weakly | 
6 | TCGACCCACAGTTTCGGGTTTTCGAGCAAGTCTGCTAGTGTCTGATGAGGCCGAAAGGCCGAAACGCGAAGCCGTATTGCACCACGCTCATCGAGAAGGC (double strand) [Nonspecific competitor #2] | binds more weakly | 
7 | TGCACGGGTTTTCGACGTTCACTGGTAGTGTCTGATGAGGCCGAAAGGCCGAAACGCGATGCCCATAACCACCACGCTCAG (double strand) [Nonspecific competitor #1] | binds more weakly | 
